Consider three molecules from PMC13568704.

The chains behind the UniProt entries cited, without tags or fusion partners. Residues count along the entry.
UniProt P11021, residues 19-654: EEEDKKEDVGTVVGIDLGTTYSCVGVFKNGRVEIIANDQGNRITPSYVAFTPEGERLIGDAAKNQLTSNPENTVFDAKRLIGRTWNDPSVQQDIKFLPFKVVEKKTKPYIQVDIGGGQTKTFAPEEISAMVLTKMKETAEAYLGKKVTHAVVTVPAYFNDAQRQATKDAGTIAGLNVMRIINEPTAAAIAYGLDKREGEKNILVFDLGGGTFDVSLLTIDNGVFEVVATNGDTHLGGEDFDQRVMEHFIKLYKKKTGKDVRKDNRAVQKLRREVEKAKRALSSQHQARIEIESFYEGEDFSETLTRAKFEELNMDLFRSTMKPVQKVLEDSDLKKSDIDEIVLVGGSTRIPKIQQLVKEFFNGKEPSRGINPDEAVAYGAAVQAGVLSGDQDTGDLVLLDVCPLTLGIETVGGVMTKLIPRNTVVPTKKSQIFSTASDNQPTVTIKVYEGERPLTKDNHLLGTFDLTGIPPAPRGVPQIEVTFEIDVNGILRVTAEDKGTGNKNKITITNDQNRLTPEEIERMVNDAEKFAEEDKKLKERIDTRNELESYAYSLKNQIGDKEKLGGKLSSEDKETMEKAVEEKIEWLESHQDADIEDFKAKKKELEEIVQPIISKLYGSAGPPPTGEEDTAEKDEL
UniProt P20163, residues 18-657: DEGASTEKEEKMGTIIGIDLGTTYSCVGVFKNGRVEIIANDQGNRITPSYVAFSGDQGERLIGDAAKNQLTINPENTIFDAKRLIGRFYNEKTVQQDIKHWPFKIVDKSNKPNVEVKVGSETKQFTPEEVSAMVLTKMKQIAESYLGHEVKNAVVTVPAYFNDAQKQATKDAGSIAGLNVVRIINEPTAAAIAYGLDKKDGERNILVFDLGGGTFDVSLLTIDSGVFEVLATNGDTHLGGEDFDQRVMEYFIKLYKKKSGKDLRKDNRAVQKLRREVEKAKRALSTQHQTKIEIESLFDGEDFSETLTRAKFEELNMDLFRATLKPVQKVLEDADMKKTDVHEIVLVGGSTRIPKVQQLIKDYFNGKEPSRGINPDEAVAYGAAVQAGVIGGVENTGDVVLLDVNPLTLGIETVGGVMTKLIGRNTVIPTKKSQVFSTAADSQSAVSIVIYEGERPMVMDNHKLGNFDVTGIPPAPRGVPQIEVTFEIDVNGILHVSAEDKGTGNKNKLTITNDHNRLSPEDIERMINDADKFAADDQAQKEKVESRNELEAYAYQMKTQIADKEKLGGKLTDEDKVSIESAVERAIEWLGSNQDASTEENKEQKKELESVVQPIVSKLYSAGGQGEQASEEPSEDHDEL
UniProt Q9Y282: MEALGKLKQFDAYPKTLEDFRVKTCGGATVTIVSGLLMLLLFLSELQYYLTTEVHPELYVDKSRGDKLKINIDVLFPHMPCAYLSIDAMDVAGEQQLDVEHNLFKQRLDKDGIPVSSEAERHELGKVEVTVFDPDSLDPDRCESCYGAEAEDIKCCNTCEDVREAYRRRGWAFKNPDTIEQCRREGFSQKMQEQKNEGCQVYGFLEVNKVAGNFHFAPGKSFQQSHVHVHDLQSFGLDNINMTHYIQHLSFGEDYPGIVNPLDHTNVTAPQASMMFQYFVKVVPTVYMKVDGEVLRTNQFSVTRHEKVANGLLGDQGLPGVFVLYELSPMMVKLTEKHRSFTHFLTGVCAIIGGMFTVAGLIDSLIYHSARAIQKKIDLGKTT

One assay concerns the target human BiP (human) (UniProt P11021). Put plainly: co-IP; human ERGIC2 or ERGIC3 with human BiP (S4B Fig); tags and precipitating antibody not given.
Another assay concerns the target HSP-4::Myc (C. elegans) (UniProt P20163). The experiment in a line: co-IP; HEK293T; HSP-4::Myc, UNC-9::GFP and Flag::ERGI-2 or Flag::ERGI-3 expressed together (Fig 6G, 6H); precipitating antibody not given.

These are yes or no findings as the source states them, for the method shown. In cells and extracts the contact can be indirect. Some entries that bind do so weakly or less than the wild type. For part of these data: Tags and fused reporters may be left off the sequences shown.

With “human ERGIC3 (from UniProt Q9Y282 1-383)”, in the assay with human BiP (human), the binding entry was “binds”.

B1: UNC-9::GFP (protein, UniProt O01393 1-386)
chain: MSMLLYYFASAVKSIQFHVDDDIIDKLNYYYTTAIITVFAILVSAKQYVGFPIQCWVPATFTEPMEQYTENYCWVQNTYFLPLHDYIPHNYAERENRQIGYYQWVPFVLALEALLFYVPTIVWRLLSWQSGIHVQSLVQMACDSRLLDLESRNRALQTIATNVEEALHVKHQVMSGNRLKLLNLIICTRSSGAAVTFLYISVKILYTVNIVGQIFLLNTFLGNRSKWYGLQVLNDLMNGREWEESGHFPRVTLCDFEVKVLGNVHRHTVQCVLMINMFNEKIFLFLWFWYFLLAGATLCSLFYWIYISVVPSRQLNFVGKYLTGIEGYKMVDSQSLRRFVFHFLRQDGVFLLRMVATHAGELPCYELAKTLWNNYCDNKEGKMHDV
Turning to B1, in the assay with HSP-4::Myc (C. elegans), the binding entry is listed as “binds”.

B2: human ERGIC2 (protein, UniProt Q96RQ1 1-377)
chain: MRRLNRKKTLSLVKELDAFPKVPESYVETSASGGTVSLIAFTTMALLTIMEFSVYQDTWMKYEYEVDKDFSSKLRINIDITVAMKCQYVGADVLDLAETMVASADGLVYEPTVFDLSPQQKEWQRMLQLIQSRLQEEHSLQDVIFKSAFKSTSTALPPREDDSSQSPNACRIHGHLYVNKVAGNFHITVGKAIPHPRGHAHLAALVNHESYNFSHRIDHLSFGELVPAIINPLDGTEKIAIDHNQMFQYFITVVPTKLHTYKISADTHQFSVTERERIINHAAGSHGVSGIFMKYDLSSLMVTVTEEHMPFWQFFVRLCGIVGGIFSTTGMLHGIGKFIVEIICCRFRLGSYKPVNSVPFEDGHTDNHLPLLENNTH
On to B2, for which the binding result with human BiP (human) was “binds”.
